Data as given in paper PMC6289470.
No constants are given. Whether binding was seen depends on the method and setting. For some assays here: In cells and extracts the contact can be indirect. Some binding calls cover weakened binding; strength is not graded here. Sequences can lack the tags named with a protein. One block for each binder: values may come before it.

Legend:
[1] = biological target: T1, OsARF17, two-hybrid fusion (rice (Oryza sativa japonica, ZH11)) (UniProt Q653U3); assay: two-hybrid; constructs in pGADT7 and pGBKT7 co-transformed into yeast AH109; transformants diluted 10^1, 10^2, 10^3 times, grown on SD -Leu/-Trp/-His/-Ade for 4 days
T1 sequence: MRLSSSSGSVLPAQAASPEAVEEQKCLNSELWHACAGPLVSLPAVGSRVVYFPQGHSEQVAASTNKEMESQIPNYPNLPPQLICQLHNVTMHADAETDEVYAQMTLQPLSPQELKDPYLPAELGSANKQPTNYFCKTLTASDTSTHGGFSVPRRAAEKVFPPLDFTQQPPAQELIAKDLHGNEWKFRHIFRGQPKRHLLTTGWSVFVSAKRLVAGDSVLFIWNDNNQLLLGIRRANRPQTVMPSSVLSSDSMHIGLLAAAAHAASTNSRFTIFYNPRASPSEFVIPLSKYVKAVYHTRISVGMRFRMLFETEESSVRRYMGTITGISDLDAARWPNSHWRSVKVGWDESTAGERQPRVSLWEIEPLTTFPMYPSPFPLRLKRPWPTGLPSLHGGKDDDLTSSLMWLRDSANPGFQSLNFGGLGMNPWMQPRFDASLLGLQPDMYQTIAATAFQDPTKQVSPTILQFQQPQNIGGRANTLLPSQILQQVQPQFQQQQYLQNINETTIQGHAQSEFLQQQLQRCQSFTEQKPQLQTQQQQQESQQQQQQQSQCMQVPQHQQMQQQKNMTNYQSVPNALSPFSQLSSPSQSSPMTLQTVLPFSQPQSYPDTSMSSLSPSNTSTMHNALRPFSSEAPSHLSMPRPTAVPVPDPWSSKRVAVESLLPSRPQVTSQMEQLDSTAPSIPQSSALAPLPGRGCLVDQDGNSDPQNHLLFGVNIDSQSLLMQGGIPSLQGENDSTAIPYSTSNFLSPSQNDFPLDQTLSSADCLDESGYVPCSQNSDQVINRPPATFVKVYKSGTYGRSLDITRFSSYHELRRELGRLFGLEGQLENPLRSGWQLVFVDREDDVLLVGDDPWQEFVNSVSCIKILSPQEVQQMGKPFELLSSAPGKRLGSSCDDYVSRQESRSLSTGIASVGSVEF

[2] = biological target: T2, C-terminal YFP fused OsARF17 (OsARF17-cYFP) (rice (Oryza sativa japonica, ZH11)) (UniProt Q653U3); assay: split reporter; split-YFP; nYFP-OsIAA12 and OsARF17-cYFP expressed in N. benthamiana leaves by Agrobacterium infiltration, YFP fluorescence observed by confocal microscopy after 48 h
T2 sequence: T1 sequence

- binding [1]: binds
B1: OsIAA12, two-hybrid fusion (protein, UniProt Q75GK1 1-226)
chain: MEAAVGYAADSLIKATELRLGLPGTADDLPSTPRGKKRAAAAEDNNANAAAADDDEHDAVEAAPPVAKAQVVGWPPVRSYRKSCFQQQSAAASKSKAAVSSCNNKDEPITKNAAPAPAASSAAAANGGSLVKVSMDGAPYLRKIDLRMYKGYRELREALEAMFVCFSGAADGANPSEFAITYQDKDGDLMLVGDVPFDMFTSTCKKLRIMKRSEATGLGSPRQMKI

- binding [2]: binds
B2: N-terminal YFP fused OsIAA12 (nYFP-OsIAA12) (protein, UniProt Q75GK1 1-226)
chain: B1 chain
